Laboratory results reported in publication PMC5906681, “BRI1 and BAK1 interact with G proteins and regulate sugar-responsive growth and development in Arabidopsis” (Nature Communications, 2018).
No constants are given. Whether binding was seen depends on the method and setting. Binding seen in cells or lysates may run through a third protein. Some entries that bind do so weakly or less than the wild type. For some assays here: Tags and fused reporters may be left off the sequences shown.

The chains behind the UniProt entries cited, without tags or fusion partners. Residues count along the entry.
UniProt O22476, residues 24-1196: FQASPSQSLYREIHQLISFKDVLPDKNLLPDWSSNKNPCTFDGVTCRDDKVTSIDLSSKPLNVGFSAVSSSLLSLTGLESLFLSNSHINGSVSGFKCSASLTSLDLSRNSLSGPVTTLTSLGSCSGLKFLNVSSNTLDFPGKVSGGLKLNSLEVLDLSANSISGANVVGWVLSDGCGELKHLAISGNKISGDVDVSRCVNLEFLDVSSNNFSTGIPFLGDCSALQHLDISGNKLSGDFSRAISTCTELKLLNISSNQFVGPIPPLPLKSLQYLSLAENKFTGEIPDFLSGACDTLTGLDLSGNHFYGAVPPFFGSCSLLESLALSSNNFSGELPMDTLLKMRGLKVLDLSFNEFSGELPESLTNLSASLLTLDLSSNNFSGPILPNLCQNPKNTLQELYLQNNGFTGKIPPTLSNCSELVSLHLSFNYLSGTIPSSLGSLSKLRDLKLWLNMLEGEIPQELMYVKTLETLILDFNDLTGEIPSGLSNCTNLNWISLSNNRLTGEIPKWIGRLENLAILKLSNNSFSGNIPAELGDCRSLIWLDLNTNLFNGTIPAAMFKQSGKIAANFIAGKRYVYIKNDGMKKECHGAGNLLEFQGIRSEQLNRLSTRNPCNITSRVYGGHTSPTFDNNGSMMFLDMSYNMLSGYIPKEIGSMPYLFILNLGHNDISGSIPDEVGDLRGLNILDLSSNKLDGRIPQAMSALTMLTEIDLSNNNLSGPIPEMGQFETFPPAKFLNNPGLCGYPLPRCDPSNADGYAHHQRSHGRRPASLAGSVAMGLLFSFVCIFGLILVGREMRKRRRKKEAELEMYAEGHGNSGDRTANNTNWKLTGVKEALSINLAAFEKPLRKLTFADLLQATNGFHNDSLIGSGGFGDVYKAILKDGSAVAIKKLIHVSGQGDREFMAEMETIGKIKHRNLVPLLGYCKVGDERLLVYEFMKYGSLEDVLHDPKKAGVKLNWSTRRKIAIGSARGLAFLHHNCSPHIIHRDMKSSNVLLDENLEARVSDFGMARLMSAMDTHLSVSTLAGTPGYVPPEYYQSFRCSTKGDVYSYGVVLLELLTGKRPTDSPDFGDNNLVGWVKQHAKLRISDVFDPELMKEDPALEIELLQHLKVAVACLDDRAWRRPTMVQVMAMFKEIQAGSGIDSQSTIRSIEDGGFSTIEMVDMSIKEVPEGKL

Assays:
[1] = target: T1, BAK1 (endogenous) (Arabidopsis (endogenous in wild-type seedlings)) (UniProt Q94F62); test: co-IP; wild-type Arabidopsis seedlings treated with glucose; anti-BAK1 antibody and Protein G Magnetic Beads; immunoblot with anti-BAK1 and anti-BRI1 (native antibodies)
T1 sequence: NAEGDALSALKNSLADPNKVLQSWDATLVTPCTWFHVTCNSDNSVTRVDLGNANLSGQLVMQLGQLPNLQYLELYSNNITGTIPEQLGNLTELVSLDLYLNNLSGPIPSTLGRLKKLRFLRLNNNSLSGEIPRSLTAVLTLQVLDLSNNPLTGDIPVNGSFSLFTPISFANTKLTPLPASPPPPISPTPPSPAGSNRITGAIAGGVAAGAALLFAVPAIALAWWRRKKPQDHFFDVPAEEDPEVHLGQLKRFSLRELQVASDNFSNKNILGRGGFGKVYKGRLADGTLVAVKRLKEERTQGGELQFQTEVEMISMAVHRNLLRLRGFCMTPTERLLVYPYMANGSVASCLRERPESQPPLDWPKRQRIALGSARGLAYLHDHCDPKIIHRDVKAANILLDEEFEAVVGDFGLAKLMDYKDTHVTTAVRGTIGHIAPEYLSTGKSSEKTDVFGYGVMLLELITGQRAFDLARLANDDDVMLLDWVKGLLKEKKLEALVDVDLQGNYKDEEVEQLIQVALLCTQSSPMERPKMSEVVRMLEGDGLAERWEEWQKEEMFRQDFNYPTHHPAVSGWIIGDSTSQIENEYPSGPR

BRI1-nYFP (Arabidopsis) = BRI1-nYFP (Arabidopsis) (UniProt O22476); test: split reporter; BiFC; nYFP and cYFP fusions coexpressed in leaves of N. benthamiana by Agrobacterium GV3101; YFP fluorescence observed after 72 h
BRI1-GFP (Arabidopsis) [2] = target: BRI1-GFP (Arabidopsis) (UniProt O22476); test: co-IP; BRI1 and BAK1 interactions induced by low glucose, after extended BRZ (Brassinazole) treatment (Supplementary Fig. 21b); set-up not shown
GFP-AGG3 (Arabidopsis) = target: T2, GFP-AGG3 (Arabidopsis) (UniProt Q6AWT8); test: co-IP; total proteins of transgenic Arabidopsis seedlings, GFP-Trap-A agarose beads; immunoblot with anti-GFP and anti-Myc or anti-HA; for BRI1-GFP with BAK1-HA seedlings treated with 0-6% glucose or mannitol for 4 or 24 h; for BRI1 with AGB1 also 2% glucose
T2 sequence: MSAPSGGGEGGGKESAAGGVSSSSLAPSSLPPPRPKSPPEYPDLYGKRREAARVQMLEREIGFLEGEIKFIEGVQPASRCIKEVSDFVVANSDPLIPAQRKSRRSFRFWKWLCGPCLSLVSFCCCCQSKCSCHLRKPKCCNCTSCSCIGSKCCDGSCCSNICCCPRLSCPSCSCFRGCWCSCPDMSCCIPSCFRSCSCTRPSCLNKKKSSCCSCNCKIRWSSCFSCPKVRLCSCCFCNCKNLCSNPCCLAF

BRI1-GFP (Arabidopsis) [3] = target: BRI1-GFP (Arabidopsis) (UniProt O22476); test: as above
[4] = target: T3, AGB1-Myc (Arabidopsis), P49177; test: co-IP; wild type, bri1-301 and bak1-4 Arabidopsis leaf protoplasts co-transformed with 35S:AGB1-Myc and 35S:GPA1-HA, dark 14 h, without or with 2% glucose for 5 h; anti-Myc-Tag mAb agarose beads; immunoblot with anti-Myc and anti-HA; conditions: remark: other sources report otherwise
T3 chain: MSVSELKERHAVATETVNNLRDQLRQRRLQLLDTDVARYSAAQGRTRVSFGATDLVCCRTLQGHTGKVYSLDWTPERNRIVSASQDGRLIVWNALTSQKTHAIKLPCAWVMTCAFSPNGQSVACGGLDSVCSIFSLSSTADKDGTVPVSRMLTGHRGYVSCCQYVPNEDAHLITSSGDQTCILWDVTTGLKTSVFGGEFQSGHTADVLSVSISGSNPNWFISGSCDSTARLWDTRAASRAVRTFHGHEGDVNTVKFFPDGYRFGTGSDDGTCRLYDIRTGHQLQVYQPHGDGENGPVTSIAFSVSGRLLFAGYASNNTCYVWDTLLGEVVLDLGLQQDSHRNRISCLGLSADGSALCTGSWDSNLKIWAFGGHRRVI

“BRI1 (endogenous) (from UniProt O22476 24-1196) (receptor)” was tested, and the binding [1] was “binds”.

B1: AGB1-cYFP (protein, UniProt P49177 1-377)
chain: MSVSELKERHAVATETVNNLRDQLRQRRLQLLDTDVARYSAAQGRTRVSFGATDLVCCRTLQGHTGKVYSLDWTPERNRIVSASQDGRLIVWNALTSQKTHAIKLPCAWVMTCAFSPNGQSVACGGLDSVCSIFSLSSTADKDGTVPVSRMLTGHRGYVSCCQYVPNEDAHLITSSGDQTCILWDVTTGLKTSVFGGEFQSGHTADVLSVSISGSNPNWFISGSCDSTARLWDTRAASRAVRTFHGHEGDVNTVKFFPDGYRFGTGSDDGTCRLYDIRTGHQLQVYQPHGDGENGPVTSIAFSVSGRLLFAGYASNNTCYVWDTLLGEVVLDLGLQQDSHRNRISCLGLSADGSALCTGSWDSNLKIWAFGGHRRVI
B1 was tested, and the binding (BRI1-nYFP (Arabidopsis)) was “binds”.

B2: MBP-AGG1 (natural protein, Arabidopsis, UniProt Q9FDX9 1-98, looked up)
chain: MREETVVYEQEESVSHGGGKHRILAELARVEQEVAFLEKELKEVENTDIVSTVCEELLSVIEKGPDPLLPLTNGPLNLGWDRWFEGPNGGEGCRCLIL
notes: AGG1, Arabidopsis G protein gamma subunit 1; also called G protein gamma subunit; source: E. coli (pMAL-c2); not shown: MBP, N-terminal, kept
For B2, the binding (BRI1-nYFP (Arabidopsis)) was “binds”.

B3: MBP-AGG2 (natural protein, Arabidopsis, UniProt Q93V47 1-100, looked up)
chain: MEAGSSNSSGQLSGRVVDTRGKHRIQAELKRLEQEARFLEEELEQLEKMDNASASCKEFLDSVDSKPDPLLPETTGPVNATWDQWFEGPKEAKRCGCSIL
notes: AGG2, Arabidopsis G protein gamma subunit 2; also called G protein gamma subunit; source: E. coli (pMAL-c2); not shown: MBP, N-terminal, kept
For B3, the binding (BRI1-nYFP (Arabidopsis)) was “binds”.

B4: AGG3-cYFP (protein, UniProt Q6AWT8 1-251)
chain: MSAPSGGGEGGGKESAAGGVSSSSLAPSSLPPPRPKSPPEYPDLYGKRREAARVQMLEREIGFLEGEIKFIEGVQPASRCIKEVSDFVVANSDPLIPAQRKSRRSFRFWKWLCGPCLSLVSFCCCCQSKCSCHLRKPKCCNCTSCSCIGSKCCDGSCCSNICCCPRLSCPSCSCFRGCWCSCPDMSCCIPSCFRSCSCTRPSCLNKKKSSCCSCNCKIRWSSCFSCPKVRLCSCCFCNCKNLCSNPCCLAF
In the case of B4, the binding (BRI1-nYFP (Arabidopsis)) is reported as “binds”.

B5: RGS1-cYFP (protein, UniProt Q8H1F2 1-459)
chain: MASGCALHGGCPSDYVAVAISVICFFVLLSRSVLPCLIHKAPRTNSSSFWIPVIQVISSFNLLFSIMMSVNLLRFRTKHWWRYCYLWAVWIEGPLGFGLLMSCRITQAFQLYFIFVKKRLPPVKSYIFLPLVLLPWIFGAAIIHATKPLNDKCHMGLQWTFPVAGLHALYVLALIAFTRAVRHVEFRFDELRDLWKGILVSATSIVIWVTAFVLNEIHEEISWLQVASRFVLLVTGGILVVVFFSISSNQPLLSQISLKKRQNFEFQRMGQALGIPDSGLLFRKEEFRPVDPNEPLDKLLLNKRFRHSFMEFADSCYAGETLHFFEEVYEHGKIPEDDSIRRIYMARHIMEKFIVAGAEMELNLSHKTRQEILTTQDLTHTDLFKNALNEVMQLIKMNLVRDYWSSIYFIKFKEEESCHEAMHKEGYSFSSPRLSSVQGSDDPFYQEHMSKSSRCSSPG
In the case of B5, the binding (BRI1-nYFP (Arabidopsis)) is reported as “binds”.

B6: BAK1-HA (receptor, UniProt Q94F62 26-615)
chain: NAEGDALSALKNSLADPNKVLQSWDATLVTPCTWFHVTCNSDNSVTRVDLGNANLSGQLVMQLGQLPNLQYLELYSNNITGTIPEQLGNLTELVSLDLYLNNLSGPIPSTLGRLKKLRFLRLNNNSLSGEIPRSLTAVLTLQVLDLSNNPLTGDIPVNGSFSLFTPISFANTKLTPLPASPPPPISPTPPSPAGSNRITGAIAGGVAAGAALLFAVPAIALAWWRRKKPQDHFFDVPAEEDPEVHLGQLKRFSLRELQVASDNFSNKNILGRGGFGKVYKGRLADGTLVAVKRLKEERTQGGELQFQTEVEMISMAVHRNLLRLRGFCMTPTERLLVYPYMANGSVASCLRERPESQPPLDWPKRQRIALGSARGLAYLHDHCDPKIIHRDVKAANILLDEEFEAVVGDFGLAKLMDYKDTHVTTAVRGTIGHIAPEYLSTGKSSEKTDVFGYGVMLLELITGQRAFDLARLANDDDVMLLDWVKGLLKEKKLEALVDVDLQGNYKDEEVEQLIQVALLCTQSSPMERPKMSEVVRMLEGDGLAERWEEWQKEEMFRQDFNYPTHHPAVSGWIIGDSTSQIENEYPSGPR
B6 was tested, and the binding (BRI1-GFP (Arabidopsis) [2]) was “binds weakly”, the binding (GFP-AGG3 (Arabidopsis)) was “binds” and the binding (BRI1-GFP (Arabidopsis) [3]) was “binds”.

B7: Myc-AGB1 (protein, UniProt P49177 1-377)
chain: MSVSELKERHAVATETVNNLRDQLRQRRLQLLDTDVARYSAAQGRTRVSFGATDLVCCRTLQGHTGKVYSLDWTPERNRIVSASQDGRLIVWNALTSQKTHAIKLPCAWVMTCAFSPNGQSVACGGLDSVCSIFSLSSTADKDGTVPVSRMLTGHRGYVSCCQYVPNEDAHLITSSGDQTCILWDVTTGLKTSVFGGEFQSGHTADVLSVSISGSNPNWFISGSCDSTARLWDTRAASRAVRTFHGHEGDVNTVKFFPDGYRFGTGSDDGTCRLYDIRTGHQLQVYQPHGDGENGPVTSIAFSVSGRLLFAGYASNNTCYVWDTLLGEVVLDLGLQQDSHRNRISCLGLSADGSALCTGSWDSNLKIWAFGGHRRVI
In the case of B7, the binding (BRI1-GFP (Arabidopsis) [3]) is reported as “binds”.

B8: Myc-AGG3 (protein, UniProt Q6AWT8 1-251)
chain: MSAPSGGGEGGGKESAAGGVSSSSLAPSSLPPPRPKSPPEYPDLYGKRREAARVQMLEREIGFLEGEIKFIEGVQPASRCIKEVSDFVVANSDPLIPAQRKSRRSFRFWKWLCGPCLSLVSFCCCCQSKCSCHLRKPKCCNCTSCSCIGSKCCDGSCCSNICCCPRLSCPSCSCFRGCWCSCPDMSCCIPSCFRSCSCTRPSCLNKKKSSCCSCNCKIRWSSCFSCPKVRLCSCCFCNCKNLCSNPCCLAF
B8 was tested, and the binding (BRI1-GFP (Arabidopsis) [3]) was “binds”.

B9: Myc-RGS1 (protein, UniProt Q8H1F2 1-459)
chain: MASGCALHGGCPSDYVAVAISVICFFVLLSRSVLPCLIHKAPRTNSSSFWIPVIQVISSFNLLFSIMMSVNLLRFRTKHWWRYCYLWAVWIEGPLGFGLLMSCRITQAFQLYFIFVKKRLPPVKSYIFLPLVLLPWIFGAAIIHATKPLNDKCHMGLQWTFPVAGLHALYVLALIAFTRAVRHVEFRFDELRDLWKGILVSATSIVIWVTAFVLNEIHEEISWLQVASRFVLLVTGGILVVVFFSISSNQPLLSQISLKKRQNFEFQRMGQALGIPDSGLLFRKEEFRPVDPNEPLDKLLLNKRFRHSFMEFADSCYAGETLHFFEEVYEHGKIPEDDSIRRIYMARHIMEKFIVAGAEMELNLSHKTRQEILTTQDLTHTDLFKNALNEVMQLIKMNLVRDYWSSIYFIKFKEEESCHEAMHKEGYSFSSPRLSSVQGSDDPFYQEHMSKSSRCSSPG
In the case of B9, the binding (BRI1-GFP (Arabidopsis) [3]) is reported as “binds”.

B10: GPA1-HA, P18064 1-383 (protein)
chain: MGLLCSRSRHHTEDTDENTQAAEIERRIEQEAKAEKHIRKLLLLGAGESGKSTIFKQIKLLFQTGFDEGELKSYVPVIHANVYQTIKLLHDGTKEFAQNETDSAKYMLSSESIAIGEKLSEIGGRLDYPRLTKDIAEGIETLWKDPAIQETCARGNELQVPDCTKYLMENLKRLSDINYIPTKEDVLYARVRTTGVVEIQFSPVGENKKSGEVYRLFDVGGQRNERRKWIHLFEGVTAVIFCAAISEYDQTLFEDEQKNRMMETKELFDWVLKQPCFEKTSFMLFLNKFDIFEKKVLDVPLNVCEWFRDYQPVSSGKQEIEHAYEFVKKKFEELYYQNTAPDRVDRVFKIYRTTALDQKLVKKTFKLVDETLRRRNLLEAGLL
In the case of B10, the binding [4] is reported as “binds”.

B11: GPA1-cYFP (protein, UniProt P18064 1-383)
chain: MGLLCSRSRHHTEDTDENTQAAEIERRIEQEAKAEKHIRKLLLLGAGESGKSTIFKQIKLLFQTGFDEGELKSYVPVIHANVYQTIKLLHDGTKEFAQNETDSAKYMLSSESIAIGEKLSEIGGRLDYPRLTKDIAEGIETLWKDPAIQETCARGNELQVPDCTKYLMENLKRLSDINYIPTKEDVLYARVRTTGVVEIQFSPVGENKKSGEVYRLFDVGGQRNERRKWIHLFEGVTAVIFCAAISEYDQTLFEDEQKNRMMETKELFDWVLKQPCFEKTSFMLFLNKFDIFEKKVLDVPLNVCEWFRDYQPVSSGKQEIEHAYEFVKKKFEELYYQNTAPDRVDRVFKIYRTTALDQKLVKKTFKLVDETLRRRNLLEAGLL
B11 was tested, and the binding (BRI1-nYFP (Arabidopsis)) was “no binding”.
